Laboratory results from publication doi:10.1101/596536.
No constants are given. Whether binding was seen depends on the method and setting. Some entries that bind do so weakly or less than the wild type.

Key:
[1] = target: Pl-TcdA1-D965A-R1971A (P. luminescens) (UniProt Q9RN43); assay: negative stain EM
[2] = target: Pl-TcdA1-E158A-R1873A (P. luminescens) (UniProt Q9RN43); assay: negative stain EM
[3] = target: Pl-TcdA1-E1086A-R1166A (P. luminescens) (UniProt Q9RN43); assay: negative stain EM
[4] = target: Pl-TcdA1-H1202A (P. luminescens) (UniProt Q9RN43); assay: negative stain EM
[5] = target: Pl-TcdA1-Y1168F-Y1205F (P. luminescens) (UniProt Q9RN43); assay: negative stain EM
[6] = target: TcdB2-TccC3 from Photorhabdus luminescens (Pl-TcdB2-TccC3) (P. luminescens) (UniProt Q8GF99); assay: SEC + other: negative stain EM

## Pl-TcdA1-D965A-R1971A (from UniProt Q9RN43 1-2516)
[1]
  binding: binds

## Pl-TcdA1-E158A-R1873A (from UniProt Q9RN43 1-2516)
[2]
  binding: binds

## Pl-TcdA1-E1086A-R1166A (from UniProt Q9RN43 1-2516)
[3]
  binding: binds

## Pl-TcdA1-H1202A (from UniProt Q9RN43 1-2516)
[4]
  binding: binds

## Pl-TcdA1-Y1168F-Y1205F (from UniProt Q9RN43 1-2516)
[5]
  binding: binds

## TcdA1 from Photorhabdus luminescens (Pl-TcdA1) (from UniProt Q9RN43 1-2516)
[6]
  binding: binds
